Positions count from the first letter of the chain named. Results are given in words; binding and its absence hold for the method and conditions named. Binding calls can cover weak binding; strength is not graded here.
B1: 2C10 rat-human chimera (chimaeric antibody 2C10c) (antibody, V domains shown)
VH: EVQLQQSGAELVRPGTSVKLSCKVSGEISTGYYFHFVRRRPGQGLEWIGRIDPEDDSTKYAERFKDRATLTAQTSSNTAYLNLSSLTSEDTATYFCTTWRIYRDSSGRPFYVMDAWGQGTLVTVSS
VL: DIQMTQSPASLSASLGETVSIECLASEDIYTYLTWYQQKPGKSPQLLIYGANKLQDGVPSRFSGSGSGTQYSLKISGIQPEDEGDYFCLQGSKFPLTFGSGTKLEIKR
B2: H1L2 humanised anti-IL-18 antibody (antibody, human IgG1, kappa, V domains shown)
VH: QVQLVQSGAEVKKPGASVKVSCKVSGEISTGYYFHWVRQAPGKGLEWMGRIDPEDDSTKYAERFKDRVTMTEDTSTDTAYMELSSLRSEDTAVYYCTTWRIYRDSSGRPFYVMDAWGQGTLVTVSS
VL: DIQMTQSPSSVSASVGDRVTITCLASEDIYTYLTWYQQKPGKAPKLLIYGANKLQDGVPSRFSGSGSGTDYTLTISSLQPEDFATYYCLQGSKFPLTFGQGTKLEIKR
B3: H1L3 humanised anti-IL-18 antibody (antibody, human IgG1, kappa, V domains shown)
VH: B2 VH
VL: B2 VL with K45Q, F83E, A84G, T85D
B4: H3L2 humanised anti-IL-18 antibody (antibody, human IgG1, kappa, V domains shown)
VH: B2 VH with W36F, Q39R, A40R, E72A, V93T, Y95F
VL: B2 VL
B5: H3L3 humanised anti-IL-18 antibody (antibody, human IgG1, kappa, V domains shown)
VH: B2 VH with W36F, Q39R, A40R, E72A, V93T, Y95F
VL: B2 VL with K45Q, F83E, A84G, T85D
B6: H1L1 humanised anti-IL-18 antibody (antibody, human IgG1, kappa, V domains shown)
VH: B2 VH
VL: B2 VL with Y71F
B7: H2L1 humanised anti-IL-18 antibody (antibody, human IgG1, kappa, V domains shown)
VH: B2 VH with Q39R, A40R
VL: B2 VL with Y71F
B8: H3L1 humanised anti-IL-18 antibody (antibody, human IgG1, kappa, V domains shown)
VH: B2 VH with W36F, Q39R, A40R, E72A, V93T, Y95F
VL: B2 VL with Y71F

What follows are binders tested against Rhesus IL-18 (rhesus (rhesus/cynomolgus)) (assay: Rhesus IL18 binding ELISA, antibody titrated, OD 490 nm).

binding, binds:
B1, B2, B3, B4, B5

Each binder was assayed against Rhesus IL-18 (rhesus (rhesus/cynomolgus)) (assay: SPR, Biacore 3000, 25 C).

binding, binds:
B6, B7, B8

These binders were tested against Rhesus IL-18 (rhesus (rhesus/cynomolgus)) (assay: ELISA).

binding, binds:
B1, B2, B3, B5, B8

These binders were tested against Rhesus IL-18 (rhesus (rhesus/cynomolgus)) (assay: SPR Biacore).

binding, binds:
B1, B2, B3, B5, B8

These binders were tested against Rhesus IL-18 (rhesus (rhesus/cynomolgus)) (assay: Rhesus IL-18 binding ELISA, antibody titrated, OD 490 nm).

binding, binds:
B1
